PubChem BioAssay AID1053208 | Peter MacCallum Cancer Centre – 2014

Assay: 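Synthetic lethal interactions between gene loss and doxorubicin in osteosarcoma cells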 (primary screen)
Cell system: mouse osteosarcoma cells, early-passage culture from an engineered mouse model of fibroblastic bone tumour
Reagents: siRNA pool against mouse genes, 40 nM
Time to read-out: about 120 h (48 h before drug, then 72 h with drug)
Treatment: doxorubicin 100 nM for 72 h, roughly 30-40% inhibitory dose
Measured: 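Viability read as ATP luminescence after 72 h of 100 nM doxorubicin or none, duplicate wells averaged, scaled to non-targeting siRNA, then expressed as robust z-scores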
Scale: viability z-score with doxorubicin: higher = more viable cells under doxorubicin; viability z-score without drug: higher = more viable cells with knock-down alone
Call rule: 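Called active if knock-down leaves viability unchanged without drug (z within -2 to 2) but lowers it with doxorubicin (z at or under -2)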
Here is an unselected part of about 17,000 reagents tested. In the full data, 788 (4.7%) got an active call. 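Calls rest on z-score classes alone; an extra cut-off of viability at most 70% of control was not applied to them.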 Entries without a mark were called inactive. Further read-outs or replicates are left out here.

Ep300 [SID152266694] gave combined z-score class no change with or without drug; viability z-score with doxorubicin -0.45; viability z-score without drug 1.52. Map3k5 [SID152295895] scored combined z-score class no change with or without drug; viability z-score with doxorubicin 0.9; viability z-score without drug -0.51. With knock-down of Foxb1 [SID152311237] the results were combined z-score class no change with or without drug; viability z-score with doxorubicin -0.67; viability z-score without drug 1.85. Ranbp17 [SID152332775] scored combined z-score class no change with or without drug; viability z-score with doxorubicin 0.45; viability z-score without drug -0.17. Knock-down of Bspry [SID152262835] gave: combined z-score class low cell count with doxorubicin only (active); viability z-score with doxorubicin -2.02; viability z-score without drug 0.84. With knock-down of Spsb4 [SID152319667] the results were combined z-score class no change with or without drug; viability z-score with doxorubicin -0.34; viability z-score without drug -0.84.

Depletion of Lrif1 [SID152335711] resulted in: combined z-score class no change with or without drug; viability z-score with doxorubicin 1.46; viability z-score without drug 1.18. After knock-down of Cmtm7 [SID152322171] the results were combined z-score class no change with or without drug; viability z-score with doxorubicin 0.67; viability z-score without drug 0.51. Against B230220B15Rik [SID152276845], the values are combined z-score class no change with or without drug; viability z-score with doxorubicin -0.67; viability z-score without drug 0.84. Adam12 [SID152267321] scored combined z-score class high cell count without drug only; viability z-score with doxorubicin 0.45; viability z-score without drug 2.36. After knock-down of Cldn1 [SID152301903], the record shows combined z-score class no change with or without drug; viability z-score with doxorubicin -0.22; viability z-score without drug -0.51. For Vmn2r37 [SID152303643], the values are combined z-score class no change with or without drug; viability z-score with doxorubicin -0.9; viability z-score without drug -0.84.

Knock-down of Nxt1 [SID152329614] gave: combined z-score class no change with or without drug; viability z-score with doxorubicin 0.45; viability z-score without drug -0.17. Knock-down of Serpinb9b [SID152261151] came out at: combined z-score class no change with or without drug; viability z-score with doxorubicin -0.22; viability z-score without drug 0.51. For Or5b116 [SID152317183], the values are combined z-score class no change with or without drug; viability z-score with doxorubicin -0.45; viability z-score without drug -0.17. Fbxo8 [SID152275102] gave combined z-score class no change with or without drug; viability z-score with doxorubicin 0.79; viability z-score without drug 1.85. Cxcl5 [SID152334935] showed combined z-score class no change with or without drug; viability z-score with doxorubicin 0.9; viability z-score without drug 0. After knock-down of Kif1c [SID152274595], the record shows combined z-score class no change with or without drug; viability z-score with doxorubicin -0.67; viability z-score without drug 0.17.

Depletion of Ache [SID152336140] came out at: combined z-score class no change with or without drug; viability z-score with doxorubicin -0.22; viability z-score without drug -0.17. Against Hsf1 [SID152261565], the entry reads combined z-score class no change with or without drug; viability z-score with doxorubicin -0.22; viability z-score without drug 1.18. Against Wdhd1 [SID152316138], the values are combined z-score class no change with or without drug; viability z-score with doxorubicin -1.12; viability z-score without drug -0.17. After knock-down of Or1j17 [SID152341513] the results were combined z-score class no change with or without drug; viability z-score with doxorubicin -0.45; viability z-score without drug -1.52. For Ca7 [SID152290142], the entry reads combined z-score class no change with or without drug; viability z-score with doxorubicin -1.57; viability z-score without drug -0.17. For Gm4861 [SID152310019], the values are combined z-score class no change with or without drug; viability z-score with doxorubicin 0.9; viability z-score without drug 0.17.

For Taar6 [SID152303657], the values are combined z-score class no change with or without drug; viability z-score with doxorubicin 0.45; viability z-score without drug -0.34. Knock-down of Foxc1 [SID152317613] came out at: combined z-score class no change with or without drug; viability z-score with doxorubicin 0; viability z-score without drug 1.85. With knock-down of Bmp8a [SID152308375] the results were combined z-score class no change with or without drug; viability z-score with doxorubicin 0.11; viability z-score without drug -1.01. Zfp608 [SID152307838] showed combined z-score class no change with or without drug; viability z-score with doxorubicin -1.01; viability z-score without drug -1.18. Adgrl4 [SID152262926] scored combined z-score class no change with or without drug; viability z-score with doxorubicin 1.57; viability z-score without drug -0.17. With knock-down of Ints13 [SID152282959], the record shows combined z-score class no change with or without drug; viability z-score with doxorubicin 1.8; viability z-score without drug 1.18.

Against Ndufc2 [SID152332370], the values are combined z-score class no change with or without drug; viability z-score with doxorubicin 0.11; viability z-score without drug -0.51. For Otud6b [SID152324807], the values are combined z-score class no change with or without drug; viability z-score with doxorubicin 0.22; viability z-score without drug 0.84. After knock-down of Meak7 [SID152272045] the results were combined z-score class no change with or without drug; viability z-score with doxorubicin 1.01; viability z-score without drug 0.84. Silencing of Or8g21 [SID152270075] gave: combined z-score class low cell count with doxorubicin only (active); viability z-score with doxorubicin -2.25; viability z-score without drug -1.01. Rora [SID152268665] scored combined z-score class no change with or without drug; viability z-score with doxorubicin 0.45; viability z-score without drug 0.51. After knock-down of Mrps15 [SID152309864] the results were combined z-score class low cell count with doxorubicin only (active); viability z-score with doxorubicin -2.02; viability z-score without drug -0.51.

6 entries from above, limited to “viability z-score without drug”:
Foxb1 [SID152311237] = 1.85
Ranbp17 [SID152332775] = -0.17
Bspry [SID152262835] = 0.84 (active)
Spsb4 [SID152319667] = -0.84
Lrif1 [SID152335711] = 1.18
Cmtm7 [SID152322171] = 0.51
